One molecule from US20130164309A1 can be followed below.

Amino acid sequences for entries named in this document (tags omitted). A change or cut given only in a name is not applied to a line headed by its entry.
UniProt Q9NPF0: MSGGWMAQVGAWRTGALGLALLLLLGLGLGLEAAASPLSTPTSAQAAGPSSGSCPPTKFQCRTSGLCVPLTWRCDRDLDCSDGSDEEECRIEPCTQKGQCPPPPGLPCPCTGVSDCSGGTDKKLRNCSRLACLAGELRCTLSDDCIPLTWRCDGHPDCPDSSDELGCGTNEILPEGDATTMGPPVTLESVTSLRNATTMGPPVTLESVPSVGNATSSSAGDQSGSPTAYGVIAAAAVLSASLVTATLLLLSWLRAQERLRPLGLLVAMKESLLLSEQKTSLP

Assay [1] addresses TCblR 32-94, 142-233-mycHis (human) (UniProt Q9NPF0). Put plainly: TC-[57Co]Cbl binding kinetics, Scatchard analysis.
Assay [2] has the same target. Put plainly: TC-[57Co]Cbl binding with unlabeled TC-Cbl, WGA-agarose, Scatchard analysis.

These are yes or no findings as the source states them, for the method shown. Some entries that bind do so weakly or less than the wild type.

B1: TC-Cbl (recombinant human transcobalamin saturated with cobalamin) (ligand, UniProt P20062 19-427, looked up)
chain: EMCEIPEMDSHLVEKLGQHLLPWMDRLSLEHLNPSIYVGLRLSSLQAGTKEDLYLHSLKLGYQQCLLGSAFSEDDGDCQGKPSMGQLALYLLALRANCEFVRGHKGDRLVSQLKWFLEDEKRAIGHDHKGHPHTSYYQYGLGILALCLHQKRVHDSVVDKLLYAVEPFHQGHHSVDTAAMAGLAFTCLKRSNFNPGRRQRITMAIRTVREEILKAQTPEGHFGNVYSTPLALQFLMTSPMRGAELGTACLKARVALLASLQDGAFQNALMISQLLPVLNHKTYIDLIFPDCLAPRVMLEPAAETIPQTQEIISVTLQVLSLLPPYRQSISVLAGSTVEDVLKKAHELGGFTYETQASLSGPYLTSVMGKAAGEREFWQLLRDPNTPLLQGIADYRPKDGETIELRLVSW
With B1, the binding result in assay [1] and in assay [2] was “binds” each time.
